Laboratory results reported in patent US20240277736A1, “USE OF […] THE TREATMENT OF NE[…] INJURY AND MIGRAINES” (priority 2020, published 2024).

System: TBI mice
Assay: Morris water maze test in a mouse model of traumatic brain injury (controlled cortical impact)

CN(C)CCc1c[nH]c2cccc(OP(=O)(O)O)c12 [Psilocybin, 4-phosphoryloxy-N,N-dimethyltryptamine]
Velocity of movement (in words) (MWM test, TBI mice): not altered | Velocity (movement speed in MWM test) (Psi-H (high dose), Day 3 (PID3, before drug treatment)): 23.27 ± 1.40 cm/s | Velocity (movement speed in MWM test) (Psi-H (high dose, i.n. day 4 to day 8 after CCI), Day 10): 25.00 ± 1.57 cm/s | Velocity (movement speed in MWM test) (Psi-H (high dose, i.n. day 4 to day 8 after CCI), Day 14): 26.38 ± 1.22 cm/s | Velocity (movement speed in MWM test) (Psi-H (high dose, i.n. day 4 to day 8 after CCI), Day 21): 27.06 ± 1.53 cm/s | Velocity (movement speed in MWM test) (Psi-L (low dose), Day 3 (PID3, before drug treatment)): 26.35 ± 1.44 cm/s | Velocity (movement speed in MWM test) (Psi-L (low dose, i.n. day 4 to day 8 after CCI), Day 10): 25.79 ± 1.39 cm/s | Velocity (movement speed in MWM test) (Psi-L (low dose, i.n. day 4 to day 8 after CCI), Day 14): 26.18 ± 0.76 cm/s | Velocity (movement speed in MWM test) (Psi-L (low dose, i.n. day 4 to day 8 after CCI), Day 21): 26.66 ± 0.76 cm/s
